Assay: Appearance / color change of the treated clothes
Type: physicochemical
Settings: 5% treatment solution, dried at 110° C. for 2 minutes

SMILES	Appearance (PET cloth)	Appearance (cotton broadcloth)
CC(=O)N1C[C@H](O)C[C@H]1C(=O)O [N-acetyl-trans-4-hydroxy-L-proline]	White	White
O=C(OC[C@H]1O[C@@H](OC(=O)c2cc(O)c(O)c(OC(=O)c3cc(O)c(O)c(O)c3)c2)[C@H](OC(=O)c2cc(O)c(O)c(OC(=O)c3cc(O)c(O)c(O)c3)c2)[C@@H](OC(=O)c2cc(O)c(O)c(OC(=O)c3cc(O)c(O)c(O)c3)c2)[C@@H]1OC(=O)c1cc(O)c(O)c(OC(=O)c2cc(O)c(O)c(O)c2)c1)c1cc(O)c(O)c(OC(=O)c2cc(O)c(O)c(O)c2)c1 [tannic acid]	Light brown	Light brown
